Assay results taken from publication doi:10.1101/2020.12.02.409078.

Chains of the proteins cited; added tags and fusions are not shown.
UniProt O35343: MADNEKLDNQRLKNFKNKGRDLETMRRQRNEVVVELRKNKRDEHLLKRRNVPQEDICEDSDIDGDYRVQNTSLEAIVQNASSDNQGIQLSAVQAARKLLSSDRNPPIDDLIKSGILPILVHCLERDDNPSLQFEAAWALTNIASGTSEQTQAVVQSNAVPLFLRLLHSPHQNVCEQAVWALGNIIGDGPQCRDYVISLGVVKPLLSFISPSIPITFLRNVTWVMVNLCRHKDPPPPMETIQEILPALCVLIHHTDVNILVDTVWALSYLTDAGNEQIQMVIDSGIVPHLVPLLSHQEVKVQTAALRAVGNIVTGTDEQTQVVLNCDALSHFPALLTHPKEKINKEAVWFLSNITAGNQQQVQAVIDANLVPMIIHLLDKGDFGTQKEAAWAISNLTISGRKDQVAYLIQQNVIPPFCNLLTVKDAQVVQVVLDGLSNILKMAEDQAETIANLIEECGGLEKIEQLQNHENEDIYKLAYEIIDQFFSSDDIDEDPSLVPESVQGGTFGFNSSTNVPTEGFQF
UniProt P63101: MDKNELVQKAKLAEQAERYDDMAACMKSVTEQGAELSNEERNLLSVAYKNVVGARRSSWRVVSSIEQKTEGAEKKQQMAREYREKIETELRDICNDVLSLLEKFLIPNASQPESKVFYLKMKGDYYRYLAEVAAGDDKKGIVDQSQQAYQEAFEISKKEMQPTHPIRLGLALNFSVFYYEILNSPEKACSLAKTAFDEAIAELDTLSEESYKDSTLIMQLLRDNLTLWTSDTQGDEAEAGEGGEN
UniProt O35344: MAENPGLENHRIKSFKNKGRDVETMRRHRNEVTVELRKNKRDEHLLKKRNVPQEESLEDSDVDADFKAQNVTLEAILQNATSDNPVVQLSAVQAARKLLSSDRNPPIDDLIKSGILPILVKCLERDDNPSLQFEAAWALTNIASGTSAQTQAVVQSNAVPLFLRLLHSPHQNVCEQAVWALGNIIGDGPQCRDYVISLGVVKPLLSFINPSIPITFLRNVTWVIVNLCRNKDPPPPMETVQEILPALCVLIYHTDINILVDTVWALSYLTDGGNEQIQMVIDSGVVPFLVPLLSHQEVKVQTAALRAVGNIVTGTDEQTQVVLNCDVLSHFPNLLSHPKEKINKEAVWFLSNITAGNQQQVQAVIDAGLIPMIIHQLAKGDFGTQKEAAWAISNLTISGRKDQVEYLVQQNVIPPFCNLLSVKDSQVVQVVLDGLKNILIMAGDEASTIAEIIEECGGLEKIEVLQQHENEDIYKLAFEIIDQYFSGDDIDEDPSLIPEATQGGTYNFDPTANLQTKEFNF
UniProt Q63844: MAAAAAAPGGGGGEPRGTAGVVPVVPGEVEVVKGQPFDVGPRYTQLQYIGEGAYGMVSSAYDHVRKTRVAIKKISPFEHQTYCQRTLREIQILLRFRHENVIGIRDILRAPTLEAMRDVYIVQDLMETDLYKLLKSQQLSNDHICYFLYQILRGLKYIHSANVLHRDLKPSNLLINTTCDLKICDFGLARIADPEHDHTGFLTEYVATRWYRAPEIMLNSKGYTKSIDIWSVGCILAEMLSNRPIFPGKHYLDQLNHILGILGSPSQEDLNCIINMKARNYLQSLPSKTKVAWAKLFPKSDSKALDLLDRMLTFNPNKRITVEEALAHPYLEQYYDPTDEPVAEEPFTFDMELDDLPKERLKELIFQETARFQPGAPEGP
UniProt Q02248: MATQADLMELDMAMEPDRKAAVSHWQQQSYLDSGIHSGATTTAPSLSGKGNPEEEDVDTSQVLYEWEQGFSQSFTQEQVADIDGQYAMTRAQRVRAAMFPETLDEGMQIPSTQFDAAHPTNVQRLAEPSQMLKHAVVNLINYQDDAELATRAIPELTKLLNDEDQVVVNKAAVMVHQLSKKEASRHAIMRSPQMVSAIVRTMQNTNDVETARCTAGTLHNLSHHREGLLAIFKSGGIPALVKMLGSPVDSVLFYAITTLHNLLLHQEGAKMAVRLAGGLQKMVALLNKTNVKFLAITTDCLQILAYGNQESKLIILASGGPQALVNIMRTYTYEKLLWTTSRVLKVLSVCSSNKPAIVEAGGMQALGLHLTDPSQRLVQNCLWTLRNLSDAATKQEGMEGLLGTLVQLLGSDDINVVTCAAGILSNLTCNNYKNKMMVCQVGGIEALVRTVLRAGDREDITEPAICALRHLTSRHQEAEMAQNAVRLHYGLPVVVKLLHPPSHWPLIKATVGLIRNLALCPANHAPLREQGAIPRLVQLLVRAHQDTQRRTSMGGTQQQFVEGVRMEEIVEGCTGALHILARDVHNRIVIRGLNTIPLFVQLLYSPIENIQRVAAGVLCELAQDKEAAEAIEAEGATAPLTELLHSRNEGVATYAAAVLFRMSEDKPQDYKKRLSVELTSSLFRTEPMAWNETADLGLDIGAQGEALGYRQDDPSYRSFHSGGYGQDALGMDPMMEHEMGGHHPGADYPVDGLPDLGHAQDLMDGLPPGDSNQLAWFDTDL
UniProt Q62433: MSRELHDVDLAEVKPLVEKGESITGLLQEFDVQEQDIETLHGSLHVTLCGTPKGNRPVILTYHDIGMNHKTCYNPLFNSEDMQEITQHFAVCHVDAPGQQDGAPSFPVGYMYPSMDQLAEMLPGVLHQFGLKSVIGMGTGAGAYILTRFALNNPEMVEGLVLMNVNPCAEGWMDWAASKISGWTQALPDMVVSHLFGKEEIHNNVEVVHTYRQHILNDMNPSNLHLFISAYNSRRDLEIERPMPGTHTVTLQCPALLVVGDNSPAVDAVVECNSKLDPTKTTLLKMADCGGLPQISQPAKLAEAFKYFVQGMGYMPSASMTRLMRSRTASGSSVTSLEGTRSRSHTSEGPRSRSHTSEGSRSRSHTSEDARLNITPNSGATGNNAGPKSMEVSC

B1: Adducin-1 (protein, UniProt Q9QYC0 1-735)
chain: MNGDTRAAVVTSPPPTTAPHKERYFDRVDENNPEYLRERNMAPDLRQDFNMMEQKKRVSMILQSPAFCEELESMIQEQFKKGKNPTGLLALQQIADFMTASVPNVYPAAPQGGMAALNMSLGMVTPVNDLRGSDSIAYDKGEKLLRCKLAAFYRLADLFGWSQLIYNHITTRVNSEQEHFLIVPFGLLYSEVTASSLVKVNLQGDIVDRGSTNLGVNQAGFTLHSAVYAARPDAKCIVHIHTPAGAAVSAMKCGLLPISPEALSLGDVAYHDYHGILVDEEEKILIQKNLGPKSKVLILRNHGLVSVGESVEEAFYYIHNLVVACEIQVRTLASAGGPDNLVLLDPGKYKAKSRSPGTPAGEGSGSPPKWQIGEQEFEALMRMLDNLGYRTGYPYRYPALRERSKKYSDVEVPASVTGHSFASDGDSGTCSPLRHSFQKQQREKTRWLHSGRGDDASEEGQNGSSPKSKTKWTKEDGHRTSTSAVPNLFVPLNTNPKEVQEMRNKIREQNLQDIKTAGPQSQVLCGVMMDRSLVQGELVTASKAIIEKEYQPHVIVSTTGPNPFNTLTDRELEEYRREVERKQKGSEENLDETREQKEKSPPDQSAVPNTPPSTPVKLEEDLPQEPTSRDDSDATTFKPTPPDLSPDEPSEALAFPAVEEEAHASPDPTQPPAEADPEPASAPTPGAEEVASPATEEGSPMDPGSDGSPGKSPSKKKKKFRTPSFLKKSKKKSDS
B2: CASK (protein, UniProt O70589 1-926)
chain: MADDDVLFEDVYELCEVIGKGPFSVVRRCINRETGQQFAVKIVDVAKFTSSPGLSTEDLKREASICHMLKHPHIVELLETYSSDGMLYMVFEFMDGADLCFEIVKRADAGFVYSEAVASHYMRQILEALRYCHDNNIIHRDVKPHCVLLASKENSAPVKLGGFGVAIQLGESGLVAGGRVGTPHFMAPEVVKREPYGKPVDVWGCGVILFILLSGCLPFYGTKERLFEGIIKGKYKMNPRQWSHISESAKDLVRRMLMLDPAERITVYEALNHPWLKERDRYAYKIHLPETVEQLRKFNARRKLKGAVLAAVSSHKFNSFYGDPPEELPDFSEDPTSSGLLAAERAVSQVLDSLEEIHALTDCSEKDLDFLHSVFQDQHLHTLLDLYDKINTKSSPQIRNPPSDAVQRAKEVLEEISCYPENNDAKELKRILTQPHFMALLQTHDVVAHEVYSDEALRVTPPPTSPYLNGDSPESANGDMDMENVTRVRLVQFQKNTDEPMGITLKMNELNHCIVARIMHGGMIHRQGTLHVGDEIREINGISVANQTVEQLQKMLREMRGSITFKIVPSYRTQSSSCERDSPSTSRQSPANGHSSTNNSVSDLPSTTQPKGRQIYVRAQFEYDPAKDDLIPCKEAGIRFRVGDIIQIISKDDHNWWQGKLENSKNGTAGLIPSPELQEWRVACIAMEKTKQEQQASCTWFGKKKKQYKDKYLAKHNAVFDQLDLVTYEEVVKLPAFKRKTLVLLGAHGVGRRHIKNTLITKHPDRFAYPIPHTTRPPKKDEENGKNYYFVSHDQMMQDISNNEYLEYGSHEDAMYGTKLETIRKIHEQGLIAILDVEPQALKVLRTAEFAPFVVFIAAPTITPGLNEDESLQRLQKESDVLQRTYAHYFDLTIINNEIDETIRHLEEAVELVCTAPQWVPVSWVY
B3: AIDA (protein, UniProt Q8BIZ1 1-1259)
chain: MGKDQELLEAARTGNVALVEKLLSGRKGGILGGGSGPLPLSNLLSIWRGPNVNCTDSSGYTALHHAALNGHKDIVLKLLQYEASTNVADNKGYFPIHLAAWKGDVEIVKILIHHGPSHSRVNEQNNENETALHCAAQYGHSEVVAVLLEELTDPTIRNSKLETPLDLAALYGRLRVVKMIISAHPNLMSCNTRKHTPLHLAARNGHKAVVQVLLEAGMDVSCQTEKGSALHEAALFGKVDVVRVLLETGIDANIKDSLGRTVLDILKEHPSQKSLQIATLLQDYLEGAGRSAAVLEEHAQEDTAQETHLSSPAESPQKTKSETVTGELSKLLDEIKLCQEKDYSFEDLCHTISDHYLDNLSKISEEELGKNGSQSVRTSSTINLSPGEVEDEEEDPNSCGPTGLWEALTPCNGCRNLGFPMLAQESYPKKRNFPMEMEPSASLDTFPSENENFLCELVDTAVTKKPCSLEIARAPSPRTDNASEVAITAPGTSHHRNSSTGPTPDCSPPSPDTALKNIVKVIRPQPKQRTSIVSSLDFQRMNHNQEYFEISTSTGCTSFTSSPAASPPTSSVETTEVKNEGAEHADDLSQQEDDEPPKEYDAGQFAGLLHGSSPACESPENPFHLYGKRNTCEDGPDEASLANSPLPFKQTPIENNPEPSVKKVKPKVVSRTIFHKRNHQLENHTIVGTRMSRSGSRNGDQWGVNPGGFVERACTLGRIRSLPKALIDMHLSKNVSKSDSDLIAYPSKDKARVNWSKSSTAERSSKDNSERTPSFTSEWEEIDKIMNSIDVGINSELEGMNGETTRPRCPVQTVGQWLESIGLPQYENHLMANGFDSVQFMGSNVMEDQDLLEIGILNSGHRQRILQAIQLLPKMRPIGHDGYHPTSVAEWLDSIELGDYTKAFLINGYTSMDLLKKIWELELINVLKISLIGHRKRILASLGDRLHDDPPQKPPRSITLREPSGNHTPPQLSPSLSQSTYTTGGSLDVPHIIMQGDARRRRNENYFDDIPRSKLERQMAQTGDWGEPSITLRPPNEATASTPVQYWQHHPEKLIFQSCDYKAFYLGSMLIKELRGTESTQDACAKMRANCRKSTEQMKKVPTIILSVSYKGVKFIDAANKNIIAEHEIRNISCAAQDPEDLSTFAYITKDLKSNHHYCHVFTAFDVNLAYEIILTLGQAFEVAYQLALQARKGGHSSTLPESFENKPSKPIPKPRVSIRKSVQIDPSEQKTLANLPWIVEPGQEAKRGINTKYETTIF

Molecular target: importin-β1 (mouse (endogenous in forebrain synaptosomes)) (UniProt P70168)
Assay: affinity purification with mass spectrometry

binding, binds:
Imp-α6 (from UniProt O35345 1-536)
Imp-α4 (from UniProt O35343 1-521)
Ywhaz (from UniProt P63101 1-245)
Imp-α3 (from UniProt O35344 1-521)
ERK1 (from UniProt Q63844 1-380)
HNRP K (from UniProt P61979 1-463)
CDK5 (from UniProt P49615 1-292)
β-catenin (from UniProt Q02248 1-781)
N-myc downstream regulated gene1 (NDRG1) (from UniProt Q62433 1-394)
B1
B2
B3

These are yes or no findings as the source states them, for the method shown. Binding seen in cells or lysates may run through a third protein. Here binding means that the protein was enriched with, or labelled near, the bait; the list need not be complete.
